From PMC8836349, “Characterization of adenine phosphoribosyltransferase (APRT) activity in Trypanosoma brucei brucei: Only one of the two isoforms is kinetically active” (PLoS Neglected Tropical Diseases, 2022) come the findings set out here.

These are yes or no findings as the source states them, for the method shown. Sequences can lack the tags named with a protein.

For experiment [1], the target named is APRT2-Ntag (Trypanosoma brucei brucei putative adenine phosphoribosyltransferase 2, Tb927.7.1790, expressed from pPICZ-Ntag) (Trypanosoma brucei brucei) (UniProt Q57V31). As to the kind of experiment: condition: only after dilution (series 17.8-140 ug mL^-1; concentration of loss not told); cross-linking; as a1 (DMS 8.7 mM, 0.2 M triethanolamine pH 8.5, RT), the diluted samples of the series 17.8-140 ug mL^-1; at which concentration the dimer is lost is not told; both purified.

Experiment [2] deals with APRT2-Ctag (Trypanosoma brucei brucei putative adenine phosphoribosyltransferase 2, Tb927.7.1790, expressed from pPICZ-Ctag) (Trypanosoma brucei brucei) (UniProt Q57V31). The experiment is described as above.

B1: APRT2-Ntag (Trypanosoma brucei brucei putative adenine phosphoribosyltransferase 2, Tb927.7.1790, expressed from pPICZ-Ntag) (natural protein, UniProt Q57V31 1-230, looked up)
chain: MSQYDAILTERHPHHFTLADTHPLAKELHANIFGESDLTHANCAHVYDISSLTEKPALFRKVIEFLKCRYETMGDTGPTHIIGVESRGYIIGAPLAVALGIPFVTARVTKRFPSSFVPEGDDLKYLPMSRSIRNDSIPPRARVLIVDDFIGTGSTMLAALRLADIVAAQVVEVLTVCDVASLGGIKIIRESDDEMFKETPIFTLIHFKLSPREAEEQLEFVNSYITRSRL
notes: APRT2 of Trypanosoma brucei brucei, Tb927.7.1790, UniProt Q57V31; the ORF, codon optimised for P. pastoris, cloned into pPICZ-Ntag; Tags removed with TEV protease; measured native-MS mass 25,860 Da (theoretical 25,853 Da); also called TbbAPRT2; source: Pichia pastoris strain smPP, purified (Ni-NTA, TEV cleavage, second Ni-NTA); not shown: His6, N-terminal, cleaved; mCherry, N-terminal, cleaved
As for B1, the binding entry in experiment [1] is given as “no binding”.

B2: APRT2-Ctag (Trypanosoma brucei brucei putative adenine phosphoribosyltransferase 2, Tb927.7.1790, expressed from pPICZ-Ctag) (natural protein, UniProt Q57V31 1-230, looked up)
chain: B1 chain
notes: APRT2 of Trypanosoma brucei brucei, Tb927.7.1790, UniProt Q57V31; the ORF, codon optimised for P. pastoris, cloned into pPICZ-Ctag; Tags removed with TEV protease; measured native-MS mass 26,637 Da (theoretical 26,647 Da), so residues of the TEV site are likely left at the C-terminus; also called TbbAPRT2; source: Pichia pastoris strain smPP, purified (Ni-NTA, TEV cleavage, second Ni-NTA); not …
For the molecule B2, in experiment [2], the binding result is “no binding”.
